Test: Glycosylation pattern of Protein-A purified mAb analyzed with 2AB
Settings: end of 14-day production process
Method: At the end of main culture production process, cell culture fluid was collected through centrifugation. The supernatants were further subjected to small-scale mAb purification with Protein-A. Glycosylation pattern of the purified mAb was analyzed with 2AB.

Substance: anti-α-synuclein antibody L971: anti-human α-synuclein monoclonal antibody expressed by CHO L971 cell-line; CHO L971 cells produce Prasinezumab
- G2 form compared with the process with 4 mM L-cystine (FIG. 10C, Example 7, CHO L971, process with 2 mM L-cystine vs 4 mM L-cystine): comparable
- G1 form compared with the process with 3 mM L-cystine (FIG. 11A, Example 8, CHO L971, process with 6 mM L-cysteine vs 3 mM L-cystine): only marginally higher
- G2 form compared with the process with 3 mM L-cystine (FIG. 11B, Example 8, CHO L971, process with 6 mM L-cysteine vs 3 mM L-cystine): comparable
